Data on 2 molecules can be found in publication doi:10.1101/2020.09.30.318253.

These are yes or no findings as the source states them, for the method shown. In cells and extracts the contact can be indirect. Some binding calls cover weakened binding; strength is not graded here. Sequences can lack the tags named with a protein.

One assay deals with T1, MBP-COP1 (Arabidopsis) (UniProt P43254).
T1 sequence: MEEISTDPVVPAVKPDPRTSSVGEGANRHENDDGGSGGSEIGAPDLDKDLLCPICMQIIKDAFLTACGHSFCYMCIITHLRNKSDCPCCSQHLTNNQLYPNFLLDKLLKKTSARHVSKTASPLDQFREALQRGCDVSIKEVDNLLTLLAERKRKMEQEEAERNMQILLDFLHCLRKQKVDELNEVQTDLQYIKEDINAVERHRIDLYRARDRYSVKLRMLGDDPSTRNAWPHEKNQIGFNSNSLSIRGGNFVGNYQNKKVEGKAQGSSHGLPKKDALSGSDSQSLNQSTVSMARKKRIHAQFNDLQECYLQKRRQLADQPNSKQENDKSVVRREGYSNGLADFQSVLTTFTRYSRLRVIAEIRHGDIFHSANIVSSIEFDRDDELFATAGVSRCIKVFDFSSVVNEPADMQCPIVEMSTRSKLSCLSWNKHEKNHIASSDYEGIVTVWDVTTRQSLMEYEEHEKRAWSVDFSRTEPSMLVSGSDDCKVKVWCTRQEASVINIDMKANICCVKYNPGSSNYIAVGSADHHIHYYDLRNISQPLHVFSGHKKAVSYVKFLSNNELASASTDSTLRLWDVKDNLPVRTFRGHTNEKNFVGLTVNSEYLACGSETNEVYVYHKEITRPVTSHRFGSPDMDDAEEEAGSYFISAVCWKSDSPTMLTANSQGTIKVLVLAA
As to the kind of experiment: pull-down.

In assay [1] the target is T2, MBP-HY5 (Arabidopsis), O24646.
T2 chain: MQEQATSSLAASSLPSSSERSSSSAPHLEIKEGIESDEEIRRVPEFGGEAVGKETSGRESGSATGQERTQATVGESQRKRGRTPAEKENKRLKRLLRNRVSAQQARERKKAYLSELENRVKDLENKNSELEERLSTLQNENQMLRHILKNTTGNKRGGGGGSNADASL
As to the kind of experiment: pull-down. The conditions noted are these: remark: other sources report otherwise.

B1: MYC-DET1 (protein, UniProt P48732 1-543)
chain: MFTSGNVTARVFERQIRTPPPGASVNRARHFYENLVPSYTLYDVESPDHCFRKFTEDGLFLISFSRNHQELIVYRPSWLTYSTTDDSTTTLPPLPRRASKFDSFFTQLYSVNLASSNELICKDFFLYHQTRRFGLFATSTAQIHDSSSPSNDAVPGVPSIDKITFVLLRLDDGVVLDERVFLHDFVNLAHNMGVFLYDDLLAILSLRYQRIHLLQIRDSGHLVDARAIGYFCREDDELFLNSSSQAMMSQDKSKQQSLSGSKEDDTGENGLRHSLSQPSGSNSFLSGVKQRLLSFIFREIWNEESDNVMRVQSLKKKFYFHFQDYVDLIIWKVQFLDRQHLLIKFGSVDGGVTRSADHHPAFFAVYNMETTDIVAFYQNSAEDLYQLFEQFSDHFTVSSSTPFMNFVTSHSNNVYALEQLKYTKNKSNSFSQFVKKMLLSLPFSCQSQSPSPYFDQSLFRFDEKLISAADRHRQSSDNPIKFISRRQPQTLKFKIKPGPECGTADGRSKKICSFLFHPHLPLAISIQQTLFMPPSVVNIHFRR
B1: in the assay with MBP-COP1 (Arabidopsis), the binding entry is recorded as “binds”.

B2: MYC-DET1, P48732 1-543 (protein)
chain: MFTSGNVTARVFERQIRTPPPGASVNRARHFYENLVPSYTLYDVESPDHCFRKFTEDGLFLISFSRNHQELIVYRPSWLTYSTTDDSTTTLPPLPRRASKFDSFFTQLYSVNLASSNELICKDFFLYHQTRRFGLFATSTAQIHDSSSPSNDAVPGVPSIDKITFVLLRLDDGVVLDERVFLHDFVNLAHNMGVFLYDDLLAILSLRYQRIHLLQIRDSGHLVDARAIGYFCREDDELFLNSSSQAMMSQDKSKQQSLSGSKEDDTGENGLRHSLSQPSGSNSFLSGVKQRLLSFIFREIWNEESDNVMRVQSLKKKFYFHFQDYVDLIIWKVQFLDRQHLLIKFGSVDGGVTRSADHHPAFFAVYNMETTDIVAFYQNSAEDLYQLFEQFSDHFTVSSSTPFMNFVTSHSNNVYALEQLKYTKNKSNSFSQFVKKMLLSLPFSCQSQSPSPYFDQSLFRFDEKLISAADRHRQSSDNPIKFISRRQPQTLKFKIKPGPECGTADGRSKKICSFLFHPHLPLAISIQQTLFMPPSVVNIHFRR
As for B2, the binding entry in assay [1] is reported as “binds”.
